From publication PMC9724415
No constants are given. Whether binding was seen depends on the method and setting. In cells and extracts the contact can be indirect. Some entries that bind do so weakly or less than the wild type.

By UniProt entry, the sequences of proteins in these tests, tags left out.
UniProt Q70CQ3: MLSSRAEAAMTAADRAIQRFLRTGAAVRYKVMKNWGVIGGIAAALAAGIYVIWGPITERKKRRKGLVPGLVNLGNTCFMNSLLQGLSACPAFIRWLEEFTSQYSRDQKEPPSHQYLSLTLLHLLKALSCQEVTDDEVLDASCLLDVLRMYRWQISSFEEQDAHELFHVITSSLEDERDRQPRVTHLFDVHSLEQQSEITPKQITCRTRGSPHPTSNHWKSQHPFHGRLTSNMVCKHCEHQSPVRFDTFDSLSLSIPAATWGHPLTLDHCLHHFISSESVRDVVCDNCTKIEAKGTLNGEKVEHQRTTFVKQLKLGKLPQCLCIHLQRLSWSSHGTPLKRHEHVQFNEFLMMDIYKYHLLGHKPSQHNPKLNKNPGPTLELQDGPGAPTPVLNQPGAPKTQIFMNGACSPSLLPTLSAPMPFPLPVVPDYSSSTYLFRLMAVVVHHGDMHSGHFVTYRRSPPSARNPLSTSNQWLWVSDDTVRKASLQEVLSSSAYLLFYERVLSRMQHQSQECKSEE
UniProt P01106: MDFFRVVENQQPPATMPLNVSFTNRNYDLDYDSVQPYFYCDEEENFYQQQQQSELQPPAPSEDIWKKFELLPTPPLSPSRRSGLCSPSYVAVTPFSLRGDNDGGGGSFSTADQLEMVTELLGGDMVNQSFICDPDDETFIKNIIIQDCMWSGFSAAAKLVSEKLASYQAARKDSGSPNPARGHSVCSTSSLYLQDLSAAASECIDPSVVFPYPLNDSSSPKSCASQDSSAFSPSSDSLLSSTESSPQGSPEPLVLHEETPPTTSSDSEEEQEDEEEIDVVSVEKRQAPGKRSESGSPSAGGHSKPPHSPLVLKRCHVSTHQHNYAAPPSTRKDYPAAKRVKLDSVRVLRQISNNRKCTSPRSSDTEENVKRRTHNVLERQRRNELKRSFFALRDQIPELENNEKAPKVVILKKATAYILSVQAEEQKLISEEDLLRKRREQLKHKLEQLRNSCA

Molecular target: USP30 (human (endogenous in HSC4)) (UniProt Q70CQ3)
Test: co-IP; HSC4 cell lysates (1% Triton X-100, 150 mM NaCl, 20 mM Tris pH 7.5, 1 mM EDTA, protease inhibitors) incubated with normal IgG, anti-USP30 or anti-c-Myc antibodies, then Protein A/G PLUS-Agarose beads at 4 °C for 2 h; washed three times; Western blot

binding: binds
Substance: c-Myc (from UniProt P01106 1-454)
